Test results from publication PMC8500230.

By UniProt entry, the sequences of proteins in these tests, tags left out.
UniProt Q9FV71: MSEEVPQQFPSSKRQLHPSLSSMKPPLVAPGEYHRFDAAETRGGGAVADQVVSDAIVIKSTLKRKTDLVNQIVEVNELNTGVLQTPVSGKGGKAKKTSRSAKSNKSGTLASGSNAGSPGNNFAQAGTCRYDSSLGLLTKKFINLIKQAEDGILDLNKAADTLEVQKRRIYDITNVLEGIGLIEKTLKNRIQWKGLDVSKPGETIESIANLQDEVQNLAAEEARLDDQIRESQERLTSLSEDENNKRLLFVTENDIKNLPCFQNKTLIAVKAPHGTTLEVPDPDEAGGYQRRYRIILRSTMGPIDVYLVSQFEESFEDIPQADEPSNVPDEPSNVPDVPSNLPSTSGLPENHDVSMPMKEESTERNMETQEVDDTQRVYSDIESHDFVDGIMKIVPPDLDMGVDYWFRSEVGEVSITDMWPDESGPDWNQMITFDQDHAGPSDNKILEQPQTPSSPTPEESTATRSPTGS

Tests used:
[1] = biological target: T1, DPB-3xCFP (Arabidopsis thaliana) (UniProt Q9FNY2); assay: affinity purification with mass spectrometry; FP-IP: anti-GFP antibody on magnetic beads, total protein extracts (4 mg/IP) of Arabidopsis seedlings expressing the GFP- or CFP-tagged bait under its own promoter; GFP alone as control; standard conditions, various growth regimes (meta-analysis of 182 IPs), with or without 50 uM cisplatin for 24 h; label-free LC-MS/MS
T1 sequence: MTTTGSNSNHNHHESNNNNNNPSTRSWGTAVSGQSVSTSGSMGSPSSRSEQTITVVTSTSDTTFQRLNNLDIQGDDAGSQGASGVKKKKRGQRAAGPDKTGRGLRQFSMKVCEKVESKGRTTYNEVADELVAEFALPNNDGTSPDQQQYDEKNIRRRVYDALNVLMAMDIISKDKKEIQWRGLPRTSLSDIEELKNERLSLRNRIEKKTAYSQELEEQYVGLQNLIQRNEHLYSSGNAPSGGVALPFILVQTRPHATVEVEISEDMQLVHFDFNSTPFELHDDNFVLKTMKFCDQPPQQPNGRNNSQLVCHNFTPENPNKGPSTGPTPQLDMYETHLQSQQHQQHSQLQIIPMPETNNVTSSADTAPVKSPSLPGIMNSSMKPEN

[2] = biological target: E2FB-GFP (Arabidopsis thaliana) (UniProt Q9FV71); assay: as above
[3] = biological target: T2, E2FC-GFP (Arabidopsis thaliana) (UniProt Q9FV70); assay: as above
T2 sequence: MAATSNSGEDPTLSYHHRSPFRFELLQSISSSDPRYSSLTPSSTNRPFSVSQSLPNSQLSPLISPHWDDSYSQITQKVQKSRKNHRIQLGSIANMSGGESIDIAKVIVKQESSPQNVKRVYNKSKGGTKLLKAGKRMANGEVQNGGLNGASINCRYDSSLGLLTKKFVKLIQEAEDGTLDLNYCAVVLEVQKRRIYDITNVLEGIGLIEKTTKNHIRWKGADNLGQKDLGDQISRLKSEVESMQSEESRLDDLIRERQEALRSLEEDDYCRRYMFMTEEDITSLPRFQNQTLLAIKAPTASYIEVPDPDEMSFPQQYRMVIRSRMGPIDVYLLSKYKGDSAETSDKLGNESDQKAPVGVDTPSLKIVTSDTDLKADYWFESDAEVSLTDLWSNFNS

[4] = biological target: T3, RBR1-GFP (Arabidopsis thaliana) (UniProt Q9LKZ3); assay: as above
T3 sequence: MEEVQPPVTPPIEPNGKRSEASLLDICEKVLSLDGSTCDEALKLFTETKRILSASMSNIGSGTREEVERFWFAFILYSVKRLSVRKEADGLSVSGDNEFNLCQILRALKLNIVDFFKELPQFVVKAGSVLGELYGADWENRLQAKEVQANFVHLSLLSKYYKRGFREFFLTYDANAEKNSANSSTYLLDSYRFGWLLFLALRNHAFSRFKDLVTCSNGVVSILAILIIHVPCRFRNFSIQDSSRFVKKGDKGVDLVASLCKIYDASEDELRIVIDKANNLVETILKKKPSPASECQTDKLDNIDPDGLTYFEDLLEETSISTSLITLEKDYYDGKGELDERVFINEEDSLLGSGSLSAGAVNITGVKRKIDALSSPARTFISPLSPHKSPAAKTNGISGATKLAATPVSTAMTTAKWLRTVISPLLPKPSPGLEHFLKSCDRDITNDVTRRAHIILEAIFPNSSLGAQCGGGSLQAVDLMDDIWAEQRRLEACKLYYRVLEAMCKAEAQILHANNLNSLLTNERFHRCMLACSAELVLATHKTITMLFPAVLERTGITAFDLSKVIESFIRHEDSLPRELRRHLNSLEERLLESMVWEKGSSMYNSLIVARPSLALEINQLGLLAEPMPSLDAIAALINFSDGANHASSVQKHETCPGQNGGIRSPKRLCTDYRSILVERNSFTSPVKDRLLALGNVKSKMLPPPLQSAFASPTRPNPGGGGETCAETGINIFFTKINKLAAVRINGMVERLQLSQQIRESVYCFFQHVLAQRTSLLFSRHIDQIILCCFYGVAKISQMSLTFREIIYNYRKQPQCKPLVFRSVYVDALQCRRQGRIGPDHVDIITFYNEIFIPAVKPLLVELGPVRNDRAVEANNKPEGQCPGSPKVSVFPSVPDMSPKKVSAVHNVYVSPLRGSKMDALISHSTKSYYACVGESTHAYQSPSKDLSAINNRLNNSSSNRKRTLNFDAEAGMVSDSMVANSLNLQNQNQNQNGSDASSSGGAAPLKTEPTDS

[5] = biological target: N-terminally tagged RBR1 (TAP bait) (Arabidopsis thaliana) (UniProt Q9LKZ3); assay: affinity purification with mass spectrometry; tandem affinity purification (GS^rhino tag) from Arabidopsis PSB-D cell suspension cultures expressing the tagged bait under the 35S promoter; 30 uM cisplatin added 16 h before harvest; 100 mg total protein extract; on-bead digest, LC-MS/MS; in …
[6] = biological target: T4, N-terminally tagged TCX5 (TAP bait) (Arabidopsis thaliana) (UniProt Q9SZD1); assay: as above
T4 sequence: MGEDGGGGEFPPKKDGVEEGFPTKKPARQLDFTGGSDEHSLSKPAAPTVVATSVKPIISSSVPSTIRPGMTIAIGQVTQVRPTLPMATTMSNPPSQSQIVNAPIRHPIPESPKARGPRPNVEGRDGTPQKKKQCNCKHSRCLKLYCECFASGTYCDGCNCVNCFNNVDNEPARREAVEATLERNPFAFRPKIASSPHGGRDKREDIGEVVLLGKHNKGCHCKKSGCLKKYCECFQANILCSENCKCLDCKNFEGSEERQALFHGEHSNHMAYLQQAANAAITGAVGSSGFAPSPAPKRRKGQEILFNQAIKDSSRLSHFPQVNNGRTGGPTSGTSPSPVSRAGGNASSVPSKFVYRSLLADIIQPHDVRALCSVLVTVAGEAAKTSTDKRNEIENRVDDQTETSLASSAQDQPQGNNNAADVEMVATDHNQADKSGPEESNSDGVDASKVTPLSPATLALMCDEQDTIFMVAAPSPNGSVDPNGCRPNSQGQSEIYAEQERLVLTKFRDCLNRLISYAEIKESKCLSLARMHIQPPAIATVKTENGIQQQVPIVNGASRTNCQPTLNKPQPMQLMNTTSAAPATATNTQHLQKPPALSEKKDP

[7] = biological target: T5, C-terminally tagged TCX5 (TAP bait) (Arabidopsis thaliana) (UniProt Q9SZD1); assay: as above
T5 sequence: T4 sequence

Measured: binding

B1: ALY1 (protein, UniProt Q6A331 1-971)
chain: MAPTRKSKSVNKRFTNEASPDINFGSASKTKQRKKKLADKLGPQWTKRELVRFYDAYRKYVGDWKKVAAAVRNNRSVEMVETLFCMNRAYLSLPEGTASVAGLIAMMTDHYSVMEGSESEGEDHDASEVTRKHLKRKRPQVLPSDFREEVVPPHSVASVEGCLSFLKQTQAYEKRQRATGKRTPRFLVAITHERDDIEDFSPPNKRAKKQLDADDDASRRGGGSPYRRKELSEITPTRLRKTSQAQEAQFKHPDSSMFENGVRDRWHKKGAADRDGALLMDMEGLVTQKEKIVRVEEAEGNYSDDDDGLGALKTLAEMSASLAPAGLLESESSPHWEEERKTNNVDKKSNTLETVSTSHHREKAKQAGLEDNLLHAISAPDKRKPKSVPESVDGNVVSIEELRTSSRKRKPKFQVLDVVAPKESTQDKSLYTKESAEVDSLKTPVKARRSSQGPAKQLKTAKTTVESSSASDKKITGPDAVVPATQVSASGPETLPQKPPNRRKISLKKSLQERAKSLETTHDKPRSFKKLSEHELLQEKLSNCLSYPLVRRWCIYEWFYSAIDYPWFAKMEFTDYLNHVGLGHAPRLTRVEWSVIKSSLGRPRRLSQRFLQDERDKLQEYRESVRKHYTELRGCATGVLHTDLARPLSVGNRVIAIHPKTREIRDGKILTVDHNKCNVLFDELGVELVMDIDCMPLNPLEYMPEGLRRQIDKCLAICKEARLNRHPSSDASVLFSPSVLENVNFSMNPPPAKQDDIREPVLYGKVIATNTTDQSIVINSKVTGTEIQRTLALQHTSDAQEMEPEMIEIVIESKSIAQAMVDAAIKAASSGKNNEDSENMVHQALSSIGEHQPLDNSIVPGIKHQEYTNGSLDHHSLNTAEPMSNGFISQEGSGKNKTPMPSELITSCVASWLMMQMISKKQYPPADVAQLMDTVVNDLQPRCPQNMPIYREIQTCMGLIKTQIMALVRTS
binds: all assays above

Results are given in words; binding and its absence hold for the method and conditions named. Binding seen in cells or lysates may run through a third protein. A yes stands for co-enrichment or nearness to the bait. Other partners may have been found. For some of these results: Sequences can lack the tags named with a protein.
